From PubChem BioAssay AID540275 (National Center for Advancing Translational Sciences (NCATS), 2011)
Hit rate of the full screen: of about 320,000 compounds, about 620 (0.19%) were called active. The inconclusive results got no clear call from the source; some entries with a clear call stand among them for comparison. No stated cut-off is given here; in the data, active means activation above about 80%; inconclusive means between about 30% and that limit; inactive means weaker than that.

The chains behind the UniProt entries cited, without tags or fusion partners.
UniProt Q8NER1, whole entry, looked up: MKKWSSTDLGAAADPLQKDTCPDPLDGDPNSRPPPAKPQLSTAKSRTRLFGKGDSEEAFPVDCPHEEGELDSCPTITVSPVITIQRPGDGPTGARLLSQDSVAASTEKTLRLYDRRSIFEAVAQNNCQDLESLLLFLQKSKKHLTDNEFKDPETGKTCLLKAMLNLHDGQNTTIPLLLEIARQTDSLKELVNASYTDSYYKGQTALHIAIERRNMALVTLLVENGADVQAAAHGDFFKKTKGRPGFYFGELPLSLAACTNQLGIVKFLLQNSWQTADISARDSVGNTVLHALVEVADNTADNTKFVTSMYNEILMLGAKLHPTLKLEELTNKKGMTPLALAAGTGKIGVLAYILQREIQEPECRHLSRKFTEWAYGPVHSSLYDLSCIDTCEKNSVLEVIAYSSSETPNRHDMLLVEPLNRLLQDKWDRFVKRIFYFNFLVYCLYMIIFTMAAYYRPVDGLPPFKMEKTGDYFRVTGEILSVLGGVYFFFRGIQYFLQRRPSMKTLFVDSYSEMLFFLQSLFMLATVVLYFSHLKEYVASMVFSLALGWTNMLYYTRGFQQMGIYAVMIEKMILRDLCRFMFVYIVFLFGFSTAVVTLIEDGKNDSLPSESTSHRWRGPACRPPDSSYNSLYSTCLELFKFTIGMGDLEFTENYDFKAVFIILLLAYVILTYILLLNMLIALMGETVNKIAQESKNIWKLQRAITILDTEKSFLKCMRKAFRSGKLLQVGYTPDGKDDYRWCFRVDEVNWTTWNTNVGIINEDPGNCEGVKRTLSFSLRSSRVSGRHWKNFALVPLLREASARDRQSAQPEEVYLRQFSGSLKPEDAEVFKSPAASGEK

Target: Transient receptor potential cation channel subfamily V member 1 (Homo sapiens) (UniProt Q8NER1)
Test: HTS Assay for Compounds that Act as Agonists of the Vanilloid Receptor 1; further: 0% is about no effect
Conditions: TRPV1-expressing cells, Fluo-8 calcium influx, agonist mode; at 8.33 µM, active compounds read high
How it was run: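 Cells expressing TRPV1 were dye-loaded with Fluo-8 and read kinetically: 10 s baseline, 3 min after compound (agonist portion), then 2 min after EC20 capsaicin (allosteric enhancer portion). Calcium-bound dye fluorescence at 480/520 nm.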

Row | Structure (SMILES) | activation
1 | COc1nc(-c2ccccc2)ccc1-c1noc(-c2cccnc2)n1 | inactive: -11.4%
2 | CCOC(=O)c1[nH]c2ccc(C(=O)OC)cc2c1C(=O)OCC | inconclusive: 31.2%
3 | O=C(NCCc1ccc(F)cc1)c1ccc(S(=O)(=O)N2CCCC2)cc1 | inconclusive: 46.3%
4 | CC1CC1C(=O)NCCc1ccc(Cl)cc1 (stereo not drawn) | inconclusive: 45.9%
5 | S=C(NCCc1ccccn1)Nc1ccc(Cl)cc1 | inactive: 3.49%
6 | CCN(CC)c1ccc2cc(-c3nc(-c4ccc(OC)cc4)cs3)c(=O)oc2c1 | inconclusive: 70.3%
7 | O=C(Cc1cccc(F)c1)Nc1ccc2c(c1)CCC2 | inconclusive: 35.3%
8 | Oc1oc(-c2ccco2)nc1C=Nc1ccccc1 | inconclusive: 30.4%
9 | Cc1cc(C)cc(NC(=S)NCc2cccs2)c1 | inconclusive: 41.3%
10 | Cc1[nH][nH]c(=O)c1N=Nc1ccc(F)cc1 | inconclusive: 37.4%
11 | COc1ccccc1C(C[N+](=O)[O-])c1c(N)n(C)c(=O)n(C)c1=O (stereo not drawn) | inactive: 2.25%
12 | CC(=O)c1ccc(Nc2nc(=O)c3cccnc3s2)cc1 | inactive: -4.15%
13 | CC(/C=N/NC(=O)c1ccc(Br)cc1)=C\c1ccccc1 | inactive: 2.09%
14 | CCOC(=O)c1oc2ccccc2c1COC(=O)CNC(=O)c1cccc(C)c1 | inactive: 0.346%
15 | CCn1c(=O)n(CCc2ccccc2)c(=O)c2c3c(sc21)CCCC3 | inconclusive: 37.7%
16 | O=C(Nc1sc2c(c1C(=O)O)CCCC2)c1ccc(F)cc1 | inconclusive: 32.1%
17 | CCCCC1=CC2=C(c3ccco3)C(=O)C(C)(OC(=O)c3ccc(OC)cc3)C(=O)C2=CN1Cc1ccc(OC)cc1 (stereo not drawn) | inactive: 7.22%
18 | O=C(N/N=C/c1cc(Br)ccc1O)C(c1ccncc1)N1CCOCC1 (stereo not drawn) | inactive: -2.64%
19 | CC(C)c1ccc(NC(=O)COC(=O)CSc2nnc(N)s2)cc1 | inconclusive: 48.4%
20 | CCOC(=O)C(=CNc1cccnc1Oc1ccc(C)c2c1CCC2)C(=O)OCC | inconclusive: 37.6%

14 entries from above, as tab-separated lines:
Row	Structure (SMILES)	activation
1	COc1nc(-c2ccccc2)ccc1-c1noc(-c2cccnc2)n1	inactive: -11.4%
2	CCOC(=O)c1[nH]c2ccc(C(=O)OC)cc2c1C(=O)OCC	inconclusive: 31.2%
3	O=C(NCCc1ccc(F)cc1)c1ccc(S(=O)(=O)N2CCCC2)cc1	inconclusive: 46.3%
5	S=C(NCCc1ccccn1)Nc1ccc(Cl)cc1	inactive: 3.49%
6	CCN(CC)c1ccc2cc(-c3nc(-c4ccc(OC)cc4)cs3)c(=O)oc2c1	inconclusive: 70.3%
8	Oc1oc(-c2ccco2)nc1C=Nc1ccccc1	inconclusive: 30.4%
9	Cc1cc(C)cc(NC(=S)NCc2cccs2)c1	inconclusive: 41.3%
13	CC(/C=N/NC(=O)c1ccc(Br)cc1)=C\c1ccccc1	inactive: 2.09%
15	CCn1c(=O)n(CCc2ccccc2)c(=O)c2c3c(sc21)CCCC3	inconclusive: 37.7%
16	O=C(Nc1sc2c(c1C(=O)O)CCCC2)c1ccc(F)cc1	inconclusive: 32.1%
17	CCCCC1=CC2=C(c3ccco3)C(=O)C(C)(OC(=O)c3ccc(OC)cc3)C(=O)C2=CN1Cc1ccc(OC)cc1 (stereo not drawn)	inactive: 7.22%
18	O=C(N/N=C/c1cc(Br)ccc1O)C(c1ccncc1)N1CCOCC1 (stereo not drawn)	inactive: -2.64%
19	CC(C)c1ccc(NC(=O)COC(=O)CSc2nnc(N)s2)cc1	inconclusive: 48.4%
20	CCOC(=O)C(=CNc1cccnc1Oc1ccc(C)c2c1CCC2)C(=O)OCC	inconclusive: 37.6%

Later entries.

Row | Structure (SMILES) | activation
21 | Cc1c(C(=O)Nc2ccc(F)cc2)oc2ccc(S(=O)(=O)N3CC(C)CC(C)C3)cc12 (stereo not drawn) | inconclusive: 60.4%
22 | CCOc1cccc(C(=O)Nc2ccc3ccccc3c2)c1 | inconclusive: 45.4%
23 | CCc1ccc(CN2CCC(n3nccc3NC(=O)c3ccc4c(c3)OCO4)CC2)cc1 | inactive: -0.216%
24 | c1ccc(Cc2nnc(N3CCOCC3)c3ccccc23)cc1 | inconclusive: 53.1%
25 | COCCCN=C1NN=C(c2cc(C)n(-c3ccccc3)c2C)CS1 | inactive: -0.791%
26 | O=C(Nc1cccc(-n2cnnn2)c1)c1ccc(Cl)cc1Cl | inconclusive: 69.7%
27 | O=C(NNC(=O)c1ccc(Cl)s1)c1csc(N2CCOCC2)n1 | inconclusive: 37.8%
28 | CC(OC(=O)CCC(=O)c1cccs1)C(=O)NC1CCCCC1C (stereo not drawn) | inconclusive: 30.3%
29 | COc1ccc(C(=O)COc2ccc(F)cc2)c(O)c1 | inconclusive: 34.8%
30 | O=C(Cc1ccccc1[N+](=O)[O-])NCCCc1ccccc1 | inconclusive: 53.2%
31 | O=C(Nc1ccc(Cl)cn1)c1cccc(F)c1 | inconclusive: 68.4%
32 | COc1ccccc1OCCNC(=O)c1cc(=O)[nH]c2ccccc12 | inactive: 2.04%
33 | CCc1ccc(C(=O)Nc2ccc(C)c(NS(C)(=O)=O)c2)cc1 | inconclusive: 75.4%
34 | Cn1c(SCC(=O)N2CCN(c3ccccc3)CC2)nnc1-c1ccco1 | inactive: 0.864%
35 | Cc1ccc2c(cnn2C(=O)CCC(=O)N2CCCCC2)c1 | inconclusive: 34.3%
36 | N/C(=N\OC(=O)c1ccc(Cl)cc1)c1ccccn1 | inconclusive: 56.6%
37 | C=CCNC(=O)C1CCN(c2ccc(S(=O)(=O)N3CCOCC3)cc2Cl)CC1 | inconclusive: 44.1%
38 | O=C(Cc1cccs1)Nc1ccc(Cl)cc1 | inconclusive: 30.1%
39 | S=c1[nH]nc(COc2ccccc2)n1/N=C/c1ccc(Br)cc1 | inconclusive: 37.7%
40 | CC1CCCCN1C(=O)CSc1nnc(-c2ccc(Cl)s2)o1 (stereo not drawn) | inconclusive: 58.3%

Row | Structure (SMILES) | activation
41 | COc1ccccc1CNS(=O)(=O)c1ccc2c(c1)CC(C)N2C(=O)C1CCC1 (stereo not drawn) | inconclusive: 34.8%
42 | COc1ccc(/C=N/NC(=O)CNc2n[nH]c(=O)[nH]c2=O)cc1OC | inactive: -3.46%
43 | CCCCn1c(SCc2nc3ccccc3s2)nc2cc(S(N)(=O)=O)ccc21 | inactive: 9.38%
44 | CN(Cc1ccc(F)cc1)C(=O)C(Cc1ccccc1)NC(=O)c1ccccc1 (stereo not drawn) | inconclusive: 45.2%
45 | COc1ccc(C2c3c(ncn(CCCO)c3=N)Oc3ccc4ccccc4c32)cc1 (stereo not drawn) | inconclusive: 35.1%
46 | CC(C)NC(=O)C1CCN(C(=O)c2cc3sccc3n2Cc2ccc(F)cc2)CC1 | inactive: 3.5%
47 | O=C(Nc1ccc(N2CCOCC2)c(F)c1)c1cccs1 | inconclusive: 33.4%
48 | CCOCc1c(C(=O)NC2=Nc3ccccc3NC(CC)=C2C(=O)OCC)oc2ccccc12 | inconclusive: 32.3%
49 | COC(=O)c1cccc(NC(=O)Nc2ccccc2OC)c1 | inconclusive: 40.4%
50 | Cc1ccc(CN(C)Cc2cc(=O)oc3cc(C)c(Cl)cc23)cc1 | inconclusive: 36.3%
51 | COc1ccccc1CNC(=O)COC(=O)c1c(C)nn(-c2ccccc2)c1Cl | inconclusive: 31.2%
52 | O=C(Nc1ccc2[nH]ncc2c1)c1cccc(F)c1 | inconclusive: 42%
53 | CNC(=O)c1c(NC(=O)c2ccc(S(=O)(=O)N3CCCC3)cc2)sc2c1CCN(C(C)C)C2 | inactive: 22.5%
54 | O=C(Cc1ccc(-n2cccc2)cc1)N1CCN(c2ccccc2F)CC1 | inconclusive: 51.7%
55 | COc1cc(C)ccc1OCc1cc(C(=O)NCc2ccncc2)no1 | inconclusive: 33.1%
56 | Cc1cccc2sc(NNC(=O)c3ccc(S(=O)(=O)N4CCc5ccccc5C4)cc3)nc12 | inactive: 0.75%
57 | Cc1ccn2c(NCc3ccccc3)c(-c3cccs3)nc2c1 | inconclusive: 77.5%
58 | CCC(C(=O)N1CCN(S(=O)(=O)c2ccc(F)cc2)CC1)c1ccccc1 (stereo not drawn) | inconclusive: 32.2%
